The supplement of paper PMC8728848
Some of the results follow.

How the values were obtained:
Experiment in all cases: glycan array binding signal (z-score within array); higher = stronger binding
Conditions in all cases: glycan notation: IUPAC condensed, linker removed
[1] = target: Gal(a1-4)Gal(b1-4)GlcNAc(b1-2)Man(a1-3)[Gal(a1-4)Gal(b1-4)GlcNAc(b1-2)Man(a1-6)]Man(b1-4)GlcNAc(b1-4)GlcNAc
How it was run: (§1)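 Glycan array data came from 3228 arrays in the Consortium for Functional Glycomics database, and only arrays with an available protein sequence were kept. Glycan names were put into IUPAC-condensed notation, and columns mapping to the same glycan were averaged. The binding signal is a within-array Z-score, averaged across arrays of one protein sequence run at different concentrations or buffers and across linkers. A negative Z-score can be read as non-binding.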

[2] = target: Gal(a1-4)Gal(b1-4)GlcNAc(b1-3)Gal(b1-4)Glc
How it was run: as §1

Gal(a1-4)GlcNAc = target: Gal(a1-4)GlcNAc
How it was run: as §1

Gal(a1-6)Glc = target: Gal(a1-6)Glc
How it was run: as §1

Gal(b1-2)Gal = target: Gal(b1-2)Gal
How it was run: as §1

Gal(b1-3)Gal = target: Gal(b1-3)Gal
How it was run: as §1

Gal(b1-3)Gal(b1-4)GlcNAc = target: Gal(b1-3)Gal(b1-4)GlcNAc
How it was run: as §1

[3] = target: Gal(b1-3)Gal(b1-4)GlcNAc(b1-2)Man(a1-3)[Gal(b1-3)Gal(b1-4)GlcNAc(b1-2)Man(a1-6)]Man(b1-4)GlcNAc(b1-4)GlcNAc
How it was run: as §1

Gal(b1-3)GalNAc = target: Gal(b1-3)GalNAc
How it was run: as §1

[4] = target: Gal(b1-3)GalNAc(a1-3)[Fuc(a1-2)]Gal(b1-4)Glc
How it was run: as §1

[5] = target: Gal(b1-3)GalNAc(a1-3)[Fuc(a1-2)]Gal(b1-4)GlcNAc
How it was run: as §1

[6] = target: Gal(b1-3)GalNAc(b1-3)Gal(a1-4)Gal(b1-4)Glc
How it was run: as §1

[7] = target: Gal(b1-3)GalNAc(b1-4)Gal(b1-4)Glc
How it was run: as §1

[8] = target: Gal(b1-3)GalNAc(b1-4)[Neu5Ac(a2-3)]Gal(b1-4)Glc
How it was run: as §1

Gal(b1-3)GlcNAc = target: Gal(b1-3)GlcNAc
How it was run: as §1

[9] = target: Gal(b1-3)GlcNAc(a1-6)Gal(b1-4)GlcNAc
How it was run: as §1

[10] = target: Gal(b1-3)GlcNAc(b1-2)Man(a1-3)[Gal(b1-3)GlcNAc(b1-2)Man(a1-6)]Man(b1-4)GlcNAc(b1-4)GlcNAc
How it was run: as §1

[11] = target: Gal(b1-3)GlcNAc(b1-2)Man(a1-3)[Gal(b1-3)GlcNAc(b1-2)Man(a1-6)]Man(b1-4)GlcNAc(b1-4)[Fuc(a1-6)]GlcNAc
How it was run: as §1

[12] = target: Gal(b1-3)GlcNAc(b1-2)[Gal(b1-3)GlcNAc(b1-6)]Man(a1-6)[Gal(b1-3)GlcNAc(b1-2)Man(a1-3)]Man(b1-4)GlcNAc(b1-4)GlcNAc
How it was run: as §1

[13] = target: Gal(b1-3)GlcNAc(b1-3)Gal(b1-3)GlcNAc
How it was run: as §1

[14] = target: Gal(b1-3)GlcNAc(b1-3)Gal(b1-4)Glc
How it was run: as §1

[15] = target: Gal(b1-3)GlcNAc(b1-3)Gal(b1-4)GlcNAc
How it was run: as §1

[16] = target: Gal(b1-3)GlcNAc(b1-3)Gal(b1-4)GlcNAc(b1-6)[Gal(b1-3)GlcNAc(b1-3)]Gal(b1-4)Glc
How it was run: as §1

[17] = target: Gal(b1-3)GlcNAc(b1-3)Gal(b1-4)[Fuc(a1-3)]GlcNAc(b1-6)[Gal(b1-3)GlcNAc(b1-3)]Gal(b1-4)Glc
How it was run: as §1

[18] = target: Gal(b1-3)GlcNAc(b1-3)GalNAc
How it was run: as §1

[19] = target: Gal(b1-3)GlcNAc(b1-6)Gal(b1-4)GlcNAc
How it was run: as §1

[20] = target: Gal(b1-3)[Fuc(a1-4)]GlcNAc
How it was run: as §1

[21] = target: Gal(b1-3)[Fuc(a1-4)]GlcNAc(b1-2)Man(a1-3)[Gal(b1-3)[Fuc(a1-4)]GlcNAc(b1-2)Man(a1-6)]Man(b1-4)GlcNAc(b1-4)GlcNAc
How it was run: as §1

[22] = target: Gal(b1-3)[Fuc(a1-4)]GlcNAc(b1-2)Man(a1-3)[Gal(b1-3)[Fuc(a1-4)]GlcNAc(b1-2)Man(a1-6)]Man(b1-4)GlcNAc(b1-4)[Fuc(a1-6)]GlcNAc
How it was run: as §1

[23] = target: Gal(b1-3)[Fuc(a1-4)]GlcNAc(b1-3)Gal(b1-3)[Fuc(a1-4)]GlcNAc
How it was run: as §1

[24] = target: Gal(b1-3)[Fuc(a1-4)]GlcNAc(b1-3)Gal(b1-4)GlcNAc
How it was run: as §1

[25] = target: Gal(b1-3)[Fuc(a1-4)]GlcNAc(b1-3)Gal(b1-4)[Fuc(a1-3)]GlcNAc
How it was run: as §1

[26] = target: Gal(b1-3)[GlcNAc(b1-6)]GalNAc
How it was run: as §1

[27] = target: Gal(b1-3)[Neu5Ac(a2-6)]GalNAc
How it was run: as §1

[28] = target: Gal(b1-3)[Neu5Ac(a2-6)]GlcNAc(b1-6)Gal(b1-4)Glc
How it was run: as §1

[29] = target: Gal(b1-3)[Neu5Ac(b2-6)]GalNAc
How it was run: as §1

Gal(b1-4)Gal = target: Gal(b1-4)Gal
How it was run: as §1

[30] = target: Gal(b1-4)GalNAc(a1-3)[Fuc(a1-2)]Gal(b1-4)GlcNAc
How it was run: as §1

[31] = target: Gal(b1-4)GalNAc(b1-3)[Fuc(a1-2)]Gal(b1-4)GlcNAc
How it was run: as §1

Gal(b1-4)Glc = target: Gal(b1-4)Glc
How it was run: as §1

Gal(b1-4)Glc6S = target: Gal(b1-4)Glc6S
How it was run: as §1

Gal(b1-4)GlcNAc = target: Gal(b1-4)GlcNAc
How it was run: as §1

[32] = target: Gal(b1-4)GlcNAc(a1-6)Gal(b1-4)GlcNAc
How it was run: as §1

Gal(b1-4)GlcNAc(b1-2)Man = target: Gal(b1-4)GlcNAc(b1-2)Man
How it was run: as §1

[33] = target: Gal(b1-4)GlcNAc(b1-2)Man(a1-3)Man(b1-4)GlcNAc(b1-4)GlcNAc
How it was run: as §1

B1: DCL-1 (Homo sapiens), Q8IX05 (protein)
chain: MLRAALPALLLPLLGLAAAAVADCPSSTWIQFQDSCYIFLQEAIKVESIEDVRNQCTDHGADMISIHNEEENAFILDTLKKQWKGPDDILLGMFYDTDDASFKWFDNSNMTFDKWTDQDDDEDLVDTCAFLHIKTGEWKKGNCEVSSVEGTLCKTAIPYKRKYLSDNHILISALVIASTVILTVLGAIIWFLYKKHSDSRFTTVFSTAPQSPYNEDCVLVVGEENEYPVQFD
Which “glycan array binding signal (z-score)” value [1] does the source give for B1 here?
The value was 0.895.

And the “glycan array binding signal (z-score)” value [2]?
The value was -0.496.

And the “glycan array binding signal (z-score)” value (Gal(a1-4)GlcNAc)?
Its value is -0.114.

What about the “glycan array binding signal (z-score)” value (Gal(a1-6)Glc) of the same binder?
The value was -0.097.

And the “glycan array binding signal (z-score)” value (Gal(b1-2)Gal)?
Its value is -0.585.

What about the “glycan array binding signal (z-score)” value (Gal(b1-3)Gal) of the same binder?
The value was -1.1.

What about the “glycan array binding signal (z-score)” value (Gal(b1-3)Gal(b1-4)GlcNAc) of the same binder?
Its value is -1.41.

And the “glycan array binding signal (z-score)” value [3]?
Its value is -0.158.

And the “glycan array binding signal (z-score)” value (Gal(b1-3)GalNAc)?
Its value is -0.347.

And the “glycan array binding signal (z-score)” value [4]?
The value was -0.891.

And the “glycan array binding signal (z-score)” value [5]?
The value was -0.032.

What about the “glycan array binding signal (z-score)” value [6] of the same binder?
Its value is -0.451.

And the “glycan array binding signal (z-score)” value [7]?
The value was 0.364.

And the “glycan array binding signal (z-score)” value [8]?
The value was 0.491.

And the “glycan array binding signal (z-score)” value (Gal(b1-3)GlcNAc)?
Its value is 0.479.

What about the “glycan array binding signal (z-score)” value [9] of the same binder?
The value was -0.17.

And the “glycan array binding signal (z-score)” value [10]?
Its value is 0.053.

What about the “glycan array binding signal (z-score)” value [11] of the same binder?
The value was -0.129.

And the “glycan array binding signal (z-score)” value [12]?
Its value is 2.22.

And the “glycan array binding signal (z-score)” value [13]?
The value was 0.234.

What about the “glycan array binding signal (z-score)” value [14] of the same binder?
Its value is -0.566.

What about the “glycan array binding signal (z-score)” value [15] of the same binder?
Its value is -0.606.

And the “glycan array binding signal (z-score)” value [16]?
Its value is 0.605.

What about the “glycan array binding signal (z-score)” value [17] of the same binder?
The value was 0.68.

And the “glycan array binding signal (z-score)” value [18]?
The value was 0.072.

And the “glycan array binding signal (z-score)” value [19]?
Its value is -0.692.

And the “glycan array binding signal (z-score)” value [20]?
Its value is -0.447.

And the “glycan array binding signal (z-score)” value [21]?
The value was -1.17.

And the “glycan array binding signal (z-score)” value [22]?
The value was -0.384.

What about the “glycan array binding signal (z-score)” value [23] of the same binder?
The value was -1.2.

What about the “glycan array binding signal (z-score)” value [24] of the same binder?
The value was -0.03.

What about the “glycan array binding signal (z-score)” value [25] of the same binder?
Its value is -0.974.

And the “glycan array binding signal (z-score)” value [26]?
Its value is -0.573.

What about the “glycan array binding signal (z-score)” value [27] of the same binder?
Its value is 0.078.

What about the “glycan array binding signal (z-score)” value [28] of the same binder?
The value was 0.213.

And the “glycan array binding signal (z-score)” value [29]?
The value was -0.235.

What about the “glycan array binding signal (z-score)” value (Gal(b1-4)Gal) of the same binder?
The value was -0.028.

What about the “glycan array binding signal (z-score)” value [30] of the same binder?
Its value is 0.232.

What about the “glycan array binding signal (z-score)” value [31] of the same binder?
The value was 0.082.

What about the “glycan array binding signal (z-score)” value (Gal(b1-4)Glc) of the same binder?
Its value is -0.673.

And the “glycan array binding signal (z-score)” value (Gal(b1-4)Glc6S)?
Its value is 0.595.

What about the “glycan array binding signal (z-score)” value (Gal(b1-4)GlcNAc) of the same binder?
The value was 0.064.

And the “glycan array binding signal (z-score)” value [32]?
Its value is -0.142.

And the “glycan array binding signal (z-score)” value (Gal(b1-4)GlcNAc(b1-2)Man)?
Its value is 0.223.

What about the “glycan array binding signal (z-score)” value [33] of the same binder?
Its value is -0.669.
